Experimental data taken from patent publication US7090874B2, “Ligand for peroxisome proliferator-activated receptor” (Kaneka Corporation, priority 2001, dated 2006).

Test system: C57BL/6J mice
Assay: Effect in model mice of diet-induced obesity (adipose tissue weights)
Type: in vivo, mouse
Procedure: C57BL/6J mice (females, 8 weeks old) were freely accessible to a high fat/high sugar diet (Oriental Yeast Co., Ltd., Table 6) for 8 weeks to obtain dietary obese animals. By using a normal diet (Oriental Yeast Co. Ltd., Table 3) as a base feed, two types of feeds, i.e., a diet without any additives and with 0.5% curcumin, were prepared. Next, said mice were divided into 2 groups (7 animals per group), and each group was freely accessible to a diet without any additives (control group) or with 0.5% curcumin (curcumin group) for 4 weeks. After an overnight fasting, mice were subjected to abdominal section under ether anesthesia to collect blood from the abdominal aorta, and then sacrificed. Then, adipose tissues were collected from the tissues around uterus, kidney and mesentery, and their weights were determined. The sum of the weights of periuterine, perirenal and mesenteric adipose tissues was determined as the total amount of intra-abdominal adipose tissue.

COc1cc(/C=C/C(=O)/C=C(O)/C=C/c2ccc(O)c(OC)c2)ccc1O [Compound 1, Curcumin]
Diet intake amount compared with control group: no significant difference
Diet intake amount (diet-induced obese C57BL/6J mice, 0.5% curcumin diet for 4 weeks, mean ± SD): 3.24 ± 0.55 g/day/animal
